Experimental data from PMC4199495.
These are yes or no findings as the source states them, for the method shown. Binding seen in cells or lysates may run through a third protein. Some entries that bind do so weakly or less than the wild type.

Amino acid sequences for entries named in this document (tags omitted).
UniProt Q9VMJ7: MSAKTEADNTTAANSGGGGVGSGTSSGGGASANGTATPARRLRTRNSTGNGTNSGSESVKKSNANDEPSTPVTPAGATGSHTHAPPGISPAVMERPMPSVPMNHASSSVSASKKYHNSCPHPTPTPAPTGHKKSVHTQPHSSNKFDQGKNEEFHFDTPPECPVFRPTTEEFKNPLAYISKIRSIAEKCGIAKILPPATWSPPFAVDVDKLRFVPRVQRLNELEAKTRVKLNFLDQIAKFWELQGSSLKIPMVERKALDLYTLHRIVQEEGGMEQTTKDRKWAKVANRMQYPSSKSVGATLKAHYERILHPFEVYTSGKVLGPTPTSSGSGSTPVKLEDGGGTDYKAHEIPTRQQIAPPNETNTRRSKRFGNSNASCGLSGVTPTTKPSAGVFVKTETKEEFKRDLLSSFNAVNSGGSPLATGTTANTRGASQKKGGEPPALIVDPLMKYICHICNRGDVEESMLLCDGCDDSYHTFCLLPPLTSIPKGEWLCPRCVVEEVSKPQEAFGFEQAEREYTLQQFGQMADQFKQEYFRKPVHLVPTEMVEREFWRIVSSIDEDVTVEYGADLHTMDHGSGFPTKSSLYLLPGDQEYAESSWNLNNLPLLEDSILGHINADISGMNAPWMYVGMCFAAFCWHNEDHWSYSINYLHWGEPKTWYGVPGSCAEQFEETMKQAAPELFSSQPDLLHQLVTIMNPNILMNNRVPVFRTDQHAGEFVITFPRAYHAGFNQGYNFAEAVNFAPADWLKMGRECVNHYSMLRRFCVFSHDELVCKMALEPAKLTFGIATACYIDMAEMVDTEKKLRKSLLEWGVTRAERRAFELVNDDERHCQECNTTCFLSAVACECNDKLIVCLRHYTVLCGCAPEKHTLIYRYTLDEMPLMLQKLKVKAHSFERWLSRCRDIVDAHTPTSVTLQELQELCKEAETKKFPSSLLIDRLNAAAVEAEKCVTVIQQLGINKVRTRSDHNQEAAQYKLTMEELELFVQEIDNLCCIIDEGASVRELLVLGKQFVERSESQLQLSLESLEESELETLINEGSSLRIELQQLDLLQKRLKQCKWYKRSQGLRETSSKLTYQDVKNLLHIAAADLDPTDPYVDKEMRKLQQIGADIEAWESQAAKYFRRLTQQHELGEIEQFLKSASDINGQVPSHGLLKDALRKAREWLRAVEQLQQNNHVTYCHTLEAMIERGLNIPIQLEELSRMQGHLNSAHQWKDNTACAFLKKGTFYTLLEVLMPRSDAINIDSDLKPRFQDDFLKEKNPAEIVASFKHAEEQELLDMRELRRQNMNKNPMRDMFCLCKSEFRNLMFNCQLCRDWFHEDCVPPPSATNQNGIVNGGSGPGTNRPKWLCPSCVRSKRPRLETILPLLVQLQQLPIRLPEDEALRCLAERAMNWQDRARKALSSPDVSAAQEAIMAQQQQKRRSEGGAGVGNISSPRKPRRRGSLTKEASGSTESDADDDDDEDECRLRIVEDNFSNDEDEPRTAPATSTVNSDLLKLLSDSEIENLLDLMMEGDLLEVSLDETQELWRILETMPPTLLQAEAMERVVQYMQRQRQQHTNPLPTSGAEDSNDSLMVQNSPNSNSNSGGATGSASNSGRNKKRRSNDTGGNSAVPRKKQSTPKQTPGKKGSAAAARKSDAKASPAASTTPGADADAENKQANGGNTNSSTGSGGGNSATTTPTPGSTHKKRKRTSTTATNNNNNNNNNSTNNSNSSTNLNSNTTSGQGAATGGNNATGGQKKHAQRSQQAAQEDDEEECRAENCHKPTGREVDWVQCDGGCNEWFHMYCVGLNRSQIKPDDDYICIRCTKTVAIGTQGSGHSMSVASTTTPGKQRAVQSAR

Target: T1, HDAC4 (endogenous, 3rd instar larval extract) (Drosophila (endogenous in 3rd instar larvae)) (UniProt Q9VYF3)
T1 sequence: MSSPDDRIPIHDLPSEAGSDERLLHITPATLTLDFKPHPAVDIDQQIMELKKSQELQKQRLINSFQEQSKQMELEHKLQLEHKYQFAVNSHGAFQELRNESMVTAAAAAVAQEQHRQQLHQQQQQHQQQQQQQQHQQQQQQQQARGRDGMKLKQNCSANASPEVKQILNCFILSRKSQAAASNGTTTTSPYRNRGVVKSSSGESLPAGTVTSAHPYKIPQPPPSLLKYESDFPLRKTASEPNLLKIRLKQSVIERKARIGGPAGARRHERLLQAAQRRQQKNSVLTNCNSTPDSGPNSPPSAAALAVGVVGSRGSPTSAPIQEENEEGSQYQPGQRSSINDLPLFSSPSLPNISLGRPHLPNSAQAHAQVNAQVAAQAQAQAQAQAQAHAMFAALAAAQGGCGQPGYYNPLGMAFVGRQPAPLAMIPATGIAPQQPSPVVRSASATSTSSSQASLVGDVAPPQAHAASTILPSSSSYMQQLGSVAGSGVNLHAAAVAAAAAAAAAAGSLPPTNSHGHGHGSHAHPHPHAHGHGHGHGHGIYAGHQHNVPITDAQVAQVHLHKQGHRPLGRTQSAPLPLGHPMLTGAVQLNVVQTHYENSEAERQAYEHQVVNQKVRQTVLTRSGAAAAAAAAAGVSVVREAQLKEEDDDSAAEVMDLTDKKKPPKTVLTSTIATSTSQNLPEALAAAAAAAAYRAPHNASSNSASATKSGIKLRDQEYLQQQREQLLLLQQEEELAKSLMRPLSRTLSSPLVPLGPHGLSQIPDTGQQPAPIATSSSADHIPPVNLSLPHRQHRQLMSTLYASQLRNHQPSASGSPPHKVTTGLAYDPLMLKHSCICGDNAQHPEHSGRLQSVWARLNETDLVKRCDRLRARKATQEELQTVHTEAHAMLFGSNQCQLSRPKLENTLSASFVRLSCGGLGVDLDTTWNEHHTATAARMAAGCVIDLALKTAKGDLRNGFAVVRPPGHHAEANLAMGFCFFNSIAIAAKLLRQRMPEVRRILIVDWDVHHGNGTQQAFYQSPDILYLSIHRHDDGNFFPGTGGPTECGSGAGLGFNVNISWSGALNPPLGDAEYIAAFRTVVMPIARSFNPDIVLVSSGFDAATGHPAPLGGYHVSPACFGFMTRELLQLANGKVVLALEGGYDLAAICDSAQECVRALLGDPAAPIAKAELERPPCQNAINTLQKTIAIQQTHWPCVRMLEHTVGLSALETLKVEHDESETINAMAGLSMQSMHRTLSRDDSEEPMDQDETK
Experiment: co-IP; HDAC4 immunoprecipitated from total lysate of 3rd instar larvae, processed as for Foxo; KDM5 detected by Western blot

binding: binds
Substance: KDM5 (endogenous, 3rd instar larval extract) (from UniProt Q9VMJ7 1-1838)
